# Experimental data: the supplement of paper PMC8728848
# The other results are listed elsewhere or left out.
# B1: Mermaid2 (Stilbonema majum) (protein)
# chain: MGSSHHHHHHSSGLVPRGSHMAASGWLRSPQGTVVKLYRRSLSWSKADEFCKDVDGRLVVDRTADMHLFLIKNVLKEKKSRVWVGLRRTAPHSRTWIWSDGTRQNEDDLNTNLWLRDEPNDAAGEEECALFMYSPWEKAWGLNDYLCRGGCRSYQFICEKGIR
# Tests used:
# Assay in all cases: glycan array binding signal (z-score within array); higher = stronger binding
# Details in all cases: glycan notation: IUPAC condensed, linker removed
# [1] = target: Neu5Ac(a2-8)Neu5Ac
# Summary of the method: (§1)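 From the Consortium for Functional Glycomics database, 3228 arrays were curated, keeping only those whose protein sequence was available. Binding is given as a within-array Z-score averaged across arrays sharing a protein sequence and across linkers. Negative Z-scores can be read as non-binding.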
# [2] = target: Neu5Ac(a2-8)Neu5Ac(a2-3)Gal(b1-3)GalNAc(b1-4)[Neu5Ac(a2-3)]Gal(b1-4)Glc
# Summary of the method: as §1
# [3] = target: Neu5Ac(a2-8)Neu5Ac(a2-3)Gal(b1-3)GalNAc(b1-4)[Neu5Ac(a2-8)Neu5Ac(a2-3)]Gal(b1-4)Glc
# Summary of the method: as §1
# [4] = target: Neu5Ac(a2-8)Neu5Ac(a2-3)Gal(b1-4)Glc
# Summary of the method: as §1
# [5] = target: Neu5Ac(a2-8)Neu5Ac(a2-3)Gal(b1-4)GlcNAc
# Summary of the method: as §1
# [6] = target: Neu5Ac(a2-8)Neu5Ac(a2-3)[Gal(b1-3)GalNAc(b1-4)]Gal(b1-4)Glc
# Summary of the method: as §1
# [7] = target: Neu5Ac(a2-8)Neu5Ac(a2-3)[GalNAc(b1-4)]Gal(b1-4)Glc
# Summary of the method: as §1
# [8] = target: Neu5Ac(a2-8)Neu5Ac(a2-8)Neu5Ac
# Summary of the method: as §1
# [9] = target: Neu5Ac(a2-8)Neu5Ac(a2-8)Neu5Ac(a2-3)Gal(b1-4)Glc
# Summary of the method: as §1
# [10] = target: Neu5Ac(a2-8)Neu5Ac(a2-8)Neu5Ac(a2-3)[Gal(b1-3)GalNAc(b1-4)]Gal(b1-4)Glc
# Summary of the method: as §1
# [11] = target: Neu5Ac(a2-8)Neu5Ac(a2-8)Neu5Ac(a2-3)[GalNAc(b1-4)]Gal(b1-4)Glc
# Summary of the method: as §1
# [12] = target: Neu5Ac(a2-8)Neu5Ac(a2-8)Neu5Ac(a2-8)Neu5Ac(a2-3)[GalNAc(b1-4)]Gal(b1-4)Glc
# Summary of the method: as §1
# [13] = target: Neu5Ac(a2-8)Neu5Gc(a2-3)Gal(b1-4)GlcNAc
# Summary of the method: as §1
# [14] = target: Neu5Ac(b2-6)Gal(b1-4)GlcNAc
# Summary of the method: as §1
# [15] = target: Neu5Ac(b2-6)GalNAc
# Summary of the method: as §1
# [16] = target: Neu5Ac9Ac(a2-3)Gal(b1-3)GlcNAc
# Summary of the method: as §1
# [17] = target: Neu5Ac9Ac(a2-3)Gal(b1-4)GlcNAc
# Summary of the method: as §1
# [18] = target: Neu5Ac9Ac(a2-6)Gal(b1-4)GlcNAc
# Summary of the method: as §1
# [19] = target: Neu5Gc(a2-3)Gal(b1-3)GlcNAc
# Summary of the method: as §1
# [20] = target: Neu5Gc(a2-3)Gal(b1-3)[Fuc(a1-4)]GlcNAc
# Summary of the method: as §1
# [21] = target: Neu5Gc(a2-3)Gal(b1-4)Glc
# Summary of the method: as §1
# [22] = target: Neu5Gc(a2-3)Gal(b1-4)GlcNAc
# Summary of the method: as §1
# [23] = target: Neu5Gc(a2-3)Gal(b1-4)GlcNAc(b1-3)Gal(b1-4)GlcNAc(b1-2)Man(a1-3)[Neu5Gc(a2-3)Gal(b1-4)GlcNAc(b1-3)Gal(b1-4)GlcNAc(b1-2)Man(a1-6)]Man(b1-4)GlcNAc(b1-4)GlcNAc
# Summary of the method: as §1
# [24] = target: Neu5Gc(a2-3)Gal(b1-4)[Fuc(a1-3)]GlcNAc
# Summary of the method: as §1
# [25] = target: Neu5Gc(a2-6)Gal(b1-4)GlcNAc
# Summary of the method: as §1
# [26] = target: Neu5Gc(a2-6)GalNAc
# Summary of the method: as §1
# [27] = target: Neu5Gc(a2-8)Neu5Ac(a2-3)Gal(b1-4)GlcNAc
# Summary of the method: as §1
# [28] = target: Neu5Gc(a2-8)Neu5Gc(a2-3)Gal(b1-4)GlcNAc
# Summary of the method: as §1
# [29] = target: Neu5Gc(a2-8)Neu5Gc(a2-3)Gal(b1-4)GlcNAc(b1-3)Gal(b1-4)GlcNAc
# Summary of the method: as §1
# [30] = target: Neu5Gc(a2-8)Neu5Gc(a2-6)Gal(b1-4)GlcNAc
# Summary of the method: as §1
# [31] = target: Neu5Gc(b2-6)Gal(b1-4)GlcNAc
# Summary of the method: as §1
binder,measurement,setting,value
B1,glycan array binding signal (z-score),[1],-0.705
same,glycan array binding signal (z-score),[2],-0.435
same,glycan array binding signal (z-score),[3],0.391
same,glycan array binding signal (z-score),[4],-0.787
same,glycan array binding signal (z-score),[5],-0.695
same,glycan array binding signal (z-score),[6],-0.406
same,glycan array binding signal (z-score),[7],-0.809
same,glycan array binding signal (z-score),[8],-0.557
same,glycan array binding signal (z-score),[9],-0.52
same,glycan array binding signal (z-score),[10],0.148
same,glycan array binding signal (z-score),[11],1.01
same,glycan array binding signal (z-score),[12],0.205
same,glycan array binding signal (z-score),[13],-0.795
same,glycan array binding signal (z-score),[14],-0.717
same,glycan array binding signal (z-score),[15],-0.52
same,glycan array binding signal (z-score),[16],-0.562
same,glycan array binding signal (z-score),[17],-0.505
same,glycan array binding signal (z-score),[18],2.34
same,glycan array binding signal (z-score),[19],-0.34
same,glycan array binding signal (z-score),[20],0.598
same,glycan array binding signal (z-score),[21],0.179
same,glycan array binding signal (z-score),[22],-0.794
same,glycan array binding signal (z-score),[23],-0.883
same,glycan array binding signal (z-score),[24],3.71
same,glycan array binding signal (z-score),[25],0.351
same,glycan array binding signal (z-score),[26],-0.111
same,glycan array binding signal (z-score),[27],-0.477
same,glycan array binding signal (z-score),[28],-0.635
same,glycan array binding signal (z-score),[29],-0.347
same,glycan array binding signal (z-score),[30],-0.365
same,glycan array binding signal (z-score),[31],-0.591

# A section taken from the entries so far, for reference:
binder,measurement,setting,value
B1,glycan array binding signal (z-score),[20],0.598
same,glycan array binding signal (z-score),[21],0.179
